Source: PubChem BioAssay AID1508597 (Cure First, 2020)

Purpose: 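Knock-downs altering ovarian cancer cell survival with or without PARP inhibitor rucaparib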 (primary screen)
Cell system: human ovarian carcinoma lines grown from tumours: OCI-P5x (papillary serous) and OCI-C5x (clear cell)
Reagent: siRNA pool against human genes, 1.25 pmol siRNA per well
Duration: 72 h or 96 h, depending on the cell culture
Conditions: rucaparib 20 µM (about IC30) or vehicle, present until read-out
Measured: 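Luminescent ATP-based viability assay read 72 or 96 h after transfection, depending on culture, given as normalised percent viability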
Reading the numbers: viability, normalised: higher = more viable cells remaining
Hit rule: 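a well counts as a hit if its normalised viability is under 80 percent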
Meaning of the calls: active = viability under 80%; inactive = viability 80% or more
The whole screen tested about 2,100 reagents; below is an unselected part. 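Calls flag viability under 80% in either arm, not effects specific to rucaparib; the reference for percent is not stated.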 Unmarked entries are inactive. The record does not give: the 100% reference.

HDAC5 [SID405526843], rucaparib or vehicle Rucaparib, cell line OCI-C5x (clear cell), technical replicate 1 | viability, normalised (%): 39.8 (active)
HDAC5 [SID405526843], rucaparib or vehicle Rucaparib, cell line OCI-C5x (clear cell), technical replicate 2 | viability, normalised (%): 48.4 (active)
HDAC5 [SID405526843], rucaparib or vehicle Rucaparib, cell line OCI-C5x (clear cell), technical replicate 3 | viability, normalised (%): 48.4 (active)
HDAC5 [SID405526843], rucaparib or vehicle Rucaparib, cell line OCI-P5x (serous), technical replicate 1 | viability, normalised (%): 75 (active)
HDAC5 [SID405526843], rucaparib or vehicle Rucaparib, cell line OCI-P5x (serous), technical replicate 2 | viability, normalised (%): 62.8 (active)
HDAC5 [SID405526843], rucaparib or vehicle Rucaparib, cell line OCI-P5x (serous), technical replicate 3 | viability, normalised (%): 66.2 (active)
HDAC5 [SID405526843], rucaparib or vehicle Vehicle, cell line OCI-C5x (clear cell), technical replicate 1 | viability, normalised (%): 33.9 (active)
HDAC5 [SID405526843], rucaparib or vehicle Vehicle, cell line OCI-C5x (clear cell), technical replicate 2 | viability, normalised (%): 50.4 (active)
HDAC5 [SID405526843], rucaparib or vehicle Vehicle, cell line OCI-C5x (clear cell), technical replicate 3 | viability, normalised (%): 56.4 (active)
HDAC5 [SID405526843], rucaparib or vehicle Vehicle, cell line OCI-P5x (serous), technical replicate 1 | viability, normalised (%): 71.4 (active)
HDAC5 [SID405526843], rucaparib or vehicle Vehicle, cell line OCI-P5x (serous), technical replicate 2 | viability, normalised (%): 91.5
HDAC5 [SID405526843], rucaparib or vehicle Vehicle, cell line OCI-P5x (serous), technical replicate 3 | viability, normalised (%): 85.8
